In US4448785A, “N-Unsaturated fatty acid amides of tryptophan ester homologues and anti-cholesteric use thereof” (Sandoz, Inc., priority 1982, dated 1984):
For at least one compound, name, drawing or mass did not settle the structure.

System: Fu5AH rat hepatoma cells
Test: Inhibition of cholesterol ester accumulation in Fu5AH cells
Assay type: cell-based
Design: unit of the concentration uncertain
Conditions: Dose 10 (unit uncertain) as printed
Excerpt: For testing a 75 cm^2 flask with a near confluent cell growth is selected. The cells are removed from the flask surface by mild enzymatic treatment with pronase. After centrifugation and decanting the enzyme solution, the cell pellet is resuspended in an appropriate volume of media for seeding the desired number of 60 mm tissue culture dishes. Five (5) ml of the diluted cell suspension are pipetted into each dish. After seeding, the dishes are labelled with the cell type, date and flask number of origin and incubated at 37° C. in approximately 5% CO2 atmosphere in a high humidity incubator. When the cultures are confluent, the actual drug testing is begun. Test compounds are routinely solubilized in 100% ethanol. An equivalent amount of ethanol is added to control groups as well. […] After the incubation period, the dishes are microscopically observed with the Zeiss Axiomat with phase contrast optics and the conditions of the cultures are recorded; especially in regard to the size, number and configuration of cytoplasmic inclusions and to cellular morphology. […]
An aliquot of 0.4 ml of free reagent (Reagent A, Table 1 below) is added to a 10×75 mm disposable glass test tube to which 20 μl of the isopropyl alcoholic solution is added and mixed. […] The fluorescence is measured with an Aminco-Bowman spectrophotofluorometer with an excitation wavelength of 325 nm and emission wavelength of 415 nm. […]

CCCCCCCC/C=C\CCCCCCCC(=O)NC(Cc1cn(C)c2ccccc12)C(=O)OCC (stereo not shown) [Example 3a, 2-(1-oxo-9-octadecenylamino)-3-(1-methylindolyl)-propanoic acid, ethyl ester]
Visual (in comparison to results with compound of Example 2a): About same
